Measured values taken from article PMC4546416.
Results are given in words; binding and its absence hold for the method and conditions named. Binding seen in cells or lysates may run through a third protein. Some binding calls cover weakened binding; strength is not graded here.

By UniProt entry, the sequences of proteins in these tests, tags left out. Where a name states a change or a piece, a line headed by the entry shows the natural chain unless it says otherwise. Chains listed by the source or under a name are the forms on record and can include a tag or linker.
UniProt O54992: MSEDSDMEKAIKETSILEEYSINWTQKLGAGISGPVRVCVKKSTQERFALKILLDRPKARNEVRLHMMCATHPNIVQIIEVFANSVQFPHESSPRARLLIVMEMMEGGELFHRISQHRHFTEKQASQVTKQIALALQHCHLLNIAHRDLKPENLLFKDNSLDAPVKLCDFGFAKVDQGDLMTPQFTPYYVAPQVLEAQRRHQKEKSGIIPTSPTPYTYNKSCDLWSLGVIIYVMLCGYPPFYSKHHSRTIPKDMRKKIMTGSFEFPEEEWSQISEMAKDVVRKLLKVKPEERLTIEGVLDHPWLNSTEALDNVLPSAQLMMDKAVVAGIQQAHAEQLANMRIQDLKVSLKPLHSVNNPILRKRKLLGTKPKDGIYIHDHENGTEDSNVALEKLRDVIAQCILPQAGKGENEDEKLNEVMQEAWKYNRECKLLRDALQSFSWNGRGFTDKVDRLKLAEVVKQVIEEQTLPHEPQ
GFP-tagged MK5/PRAK-Δex8 (exon 8 deletion mutant) (O54992, form named): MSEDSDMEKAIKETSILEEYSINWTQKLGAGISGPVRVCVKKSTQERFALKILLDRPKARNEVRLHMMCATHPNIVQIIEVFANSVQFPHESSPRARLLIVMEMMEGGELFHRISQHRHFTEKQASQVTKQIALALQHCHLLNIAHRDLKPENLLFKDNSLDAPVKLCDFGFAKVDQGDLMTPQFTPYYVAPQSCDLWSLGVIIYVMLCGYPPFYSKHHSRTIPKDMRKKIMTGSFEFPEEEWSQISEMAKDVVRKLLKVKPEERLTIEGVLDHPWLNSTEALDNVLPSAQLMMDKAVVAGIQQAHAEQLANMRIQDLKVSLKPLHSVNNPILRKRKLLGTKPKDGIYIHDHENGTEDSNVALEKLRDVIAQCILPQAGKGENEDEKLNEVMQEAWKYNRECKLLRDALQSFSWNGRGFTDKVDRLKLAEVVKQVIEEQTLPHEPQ
UniProt Q16659: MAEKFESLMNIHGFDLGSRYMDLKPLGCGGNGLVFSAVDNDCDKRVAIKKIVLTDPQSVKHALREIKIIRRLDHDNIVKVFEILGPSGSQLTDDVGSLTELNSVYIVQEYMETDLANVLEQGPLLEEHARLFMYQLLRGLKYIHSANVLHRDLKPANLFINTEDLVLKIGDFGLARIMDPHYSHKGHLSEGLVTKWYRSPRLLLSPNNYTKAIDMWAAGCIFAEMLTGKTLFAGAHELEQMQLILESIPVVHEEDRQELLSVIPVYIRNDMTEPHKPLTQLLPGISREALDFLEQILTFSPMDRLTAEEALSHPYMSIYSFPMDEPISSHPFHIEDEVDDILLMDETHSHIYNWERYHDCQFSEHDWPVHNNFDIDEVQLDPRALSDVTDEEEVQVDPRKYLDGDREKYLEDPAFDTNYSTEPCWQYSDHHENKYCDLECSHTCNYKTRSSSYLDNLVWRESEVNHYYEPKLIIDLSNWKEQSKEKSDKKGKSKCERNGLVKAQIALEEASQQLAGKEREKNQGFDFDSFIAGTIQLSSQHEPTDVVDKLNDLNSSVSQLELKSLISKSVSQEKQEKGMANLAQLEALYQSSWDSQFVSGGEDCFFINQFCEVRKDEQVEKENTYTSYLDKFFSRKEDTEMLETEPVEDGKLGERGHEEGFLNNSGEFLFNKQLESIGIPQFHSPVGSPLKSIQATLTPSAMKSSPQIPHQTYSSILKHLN

Experiments:
[1] = molecular target: GFP-tagged MK5/PRAK wild type (MAPK-activated protein kinase 5 / p38-regulated and -activated kinase) (mouse) (UniProt O54992); assay: co-IP; GFP-MK5/PRAK or its Δex6 / Δex8 mutants co-expressed with His-ERK3 in HEK293 cells; lysates (10 mM Tris/HCl pH 7.5, 150 mM NaCl, 0.5 mM EDTA, 0.5% NP-40, then diluted) incubated with GFP nanobodies on M-270 epoxy magnetic beads, 1 h at 4°C; washes up to 300 mM NaCl; ERK3 seen by Coomassie stain and by Western blot against ERK3
[2] = molecular target: GFP-tagged MK5/PRAK-Δex8 (exon 8 deletion mutant) (mouse) (UniProt O54992); assay: as above

binding [1]: binds
binding [2]: binds
Substance: His-ERK3 (from UniProt Q16659 1-721) (enzyme)
